Measurements published in PMC7819943, “Rice protein-binding microarrays: a tool to detect cis-acting elements near promoter regions in rice”.
The list shows a part of the results.

Each sequence was assayed against T1, OsSMF1 (Oryza sativa, UniProt Q6ZLB0 1-436) (assay: protein-binding microarray (RPBM); PBS, 2% BSA, 51.3 ng/ul salmon testes DNA, 50 uM zinc acetate, 200 nM TF, 25 C, 1 h; high values mean tight binding). Settings: protein: recombinant; tags: N-terminal polyhistidine and DsRed monomer fusion (pET32a); chain copies: 2; label: CyDye5-dUTP incorporated in the synthesized complementary strand; 3' TTTTT single-stranded linker to array surface; dsDNA, one strand shown.
T1 sequence: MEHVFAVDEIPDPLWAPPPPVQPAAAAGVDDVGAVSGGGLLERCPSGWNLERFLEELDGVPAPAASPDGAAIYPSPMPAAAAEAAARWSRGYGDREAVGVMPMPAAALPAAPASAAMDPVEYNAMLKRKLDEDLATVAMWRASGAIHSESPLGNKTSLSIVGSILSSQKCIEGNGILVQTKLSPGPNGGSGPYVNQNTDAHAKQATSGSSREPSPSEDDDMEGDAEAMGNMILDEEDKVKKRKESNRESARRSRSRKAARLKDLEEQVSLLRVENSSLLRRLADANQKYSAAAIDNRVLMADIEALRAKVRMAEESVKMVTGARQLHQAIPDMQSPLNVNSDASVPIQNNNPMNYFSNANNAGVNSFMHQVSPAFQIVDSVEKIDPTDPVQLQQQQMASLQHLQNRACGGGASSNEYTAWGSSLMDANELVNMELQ
Procedure, shortened: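 Binding signal is defined as the fluorescence intensity of each feature in arbitrary units, read on an Axon 4000B scanner. Transcription factors with N-terminal polyhistidine and DsRed fusions came from E. coli BL21-CodonPlus and were purified on Ni–NTA. They were incubated at 200 nM for 1 h at 25 °C on a custom Agilent array that had been made double-stranded with Cy5-dUTP, with 50 µM zinc acetate present, and the array was washed.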

Sequence	binding signal
ATTTATATATAATACTAACTATACTACAGTATGTGGCACCCGGAGTCACCTAGTGCAG	3300 fluorescence intensity (a.u.)
TTTAGCAGTTTCAAACACAACGCTTTCCGTGTCAGGCCGACGGAGTCACCTAGTGCAG	3240 fluorescence intensity (a.u.)
GTTTGGGCTCAGGCATTGGCACGTGGGTCGGCATGTCACACGGAGTCACCTAGTGCAG	4320 fluorescence intensity (a.u.)
TCCACATGCACGCGTGCAGGAACCTAGTCACCAATAACACCGGAGTCACCTAGTGCAG	4320 fluorescence intensity (a.u.)
TCATCGCCTCTTGTGTTCGCGCGCGCGAGCAGGGTGGTTGCGGAGTCACCTAGTGCAG	3260 fluorescence intensity (a.u.)
GGGCATGACATGTCACATATCCTTTAACCGATCGTACTATCGGAGTCACCTAGTGCAG	7430 fluorescence intensity (a.u.)
TATGCCATCCTGACACACATGTCATTGACTCATGTGGGTCCGGAGTCACCTAGTGCAG	6620 fluorescence intensity (a.u.)
TGTACTTGTCAGTTGTCACTCTGCTCAGCTGCGGTCGCCACGGAGTCACCTAGTGCAG	3730 fluorescence intensity (a.u.)
TGTATGAGCTGACGAGGATTATTCATCCTGGTTGGTCGATCGGAGTCACCTAGTGCAG	5120 fluorescence intensity (a.u.)
GCTTAATACAGCGCGGTAAAAGTAATTAGAGGCAGATAGTCGGAGTCACCTAGTGCAG	20100 fluorescence intensity (a.u.)
TGTGTTCCTGTACTTTTAGTATGCTAAAGGGTAATATAGTCGGAGTCACCTAGTGCAG	3800 fluorescence intensity (a.u.)
TCTCTGAGCCCCTGCCTTGCTGGCCCTGAACCTCTCTCTCCGGAGTCACCTAGTGCAG	3160 fluorescence intensity (a.u.)
GATCAGTTGCACCAGAATAACCTGACGCAATGCCGGACGACGGAGTCACCTAGTGCAG	5250 fluorescence intensity (a.u.)
TAGGTGTCCCCGTATCACGCACACAGAAGTGTAACCGCCCCGGAGTCACCTAGTGCAG	3330 fluorescence intensity (a.u.)
CCTCTCCCTCGTCGCATCGCACCATCAATCAATCGATCGACGGAGTCACCTAGTGCAG	3280 fluorescence intensity (a.u.)
GAGTTGTACTTGTTCTTAATTTGGCAGGGAAATCTTATGACGGAGTCACCTAGTGCAG	21900 fluorescence intensity (a.u.)
ATGGTCGTTCTCACTTCCGTCATCAATTATTATTGATTGGCGGAGTCACCTAGTGCAG	3280 fluorescence intensity (a.u.)
ATGACCGAGCAGAAGCATAGCTTGGGCGTCGCGTGGCCCGCGGAGTCACCTAGTGCAG	9420 fluorescence intensity (a.u.)
GTAAAGTTGCAGTCTTGTTCTTGGCTGGCATATAGATGTGCGGAGTCACCTAGTGCAG	3810 fluorescence intensity (a.u.)
CGTGCCCCGCCTGCGCAGCCACCTCAGCACGCGCGCGAATCGGAGTCACCTAGTGCAG	11600 fluorescence intensity (a.u.)
TCACTAGCAGGCGGGAGGGGCGGCGACGCTAGCAGGCGAGCGGAGTCACCTAGTGCAG	3660 fluorescence intensity (a.u.)

Sequence	binding signal
AGAGAGAGGGTGACGTGGACACCTGATATGTAGGTCTCACCGGAGTCACCTAGTGCAG	15500 fluorescence intensity (a.u.)
TATTGTCAACTTATTAATCATCATATAACGGTGTTGTGTGCGGAGTCACCTAGTGCAG	3160 fluorescence intensity (a.u.)
AATGTAATAAATTGTAGATGTCATTGCTATGCATGCATGACGGAGTCACCTAGTGCAG	3920 fluorescence intensity (a.u.)
CTCCGTCCCTAAAAGAATGCATTTCTAGCTACGCATCTGGCGGAGTCACCTAGTGCAG	3150 fluorescence intensity (a.u.)
ATACCTGATCCTACTTGTCATACACATATTTATCTTATAGCGGAGTCACCTAGTGCAG	3620 fluorescence intensity (a.u.)
CACATGTTCTGAATTGAACCCATGACGCCACATCAAATTTCGGAGTCACCTAGTGCAG	4540 fluorescence intensity (a.u.)
CGCCACCACGTCGTCGCTGATCGGAAACCGATCGGCGATTCGGAGTCACCTAGTGCAG	3260 fluorescence intensity (a.u.)
CTTTGCCACGGCGGTCTCTCGTCCTCTTCCTCCTCTCCGCCGGAGTCACCTAGTGCAG	4190 fluorescence intensity (a.u.)
TCATGATCTTTTGAATAAGATGAATGGTCAAATGTTACAACGGAGTCACCTAGTGCAG	4260 fluorescence intensity (a.u.)
ATTAATTTGACCAACTTCATTCAACATGTAACATGGTCTCCGGAGTCACCTAGTGCAG	4020 fluorescence intensity (a.u.)
TTAGTGTGGTAATATTTGGTCATCAACCAAATAGCCTCAACGGAGTCACCTAGTGCAG	3510 fluorescence intensity (a.u.)
AATATTGAGGATCGATGTACGCACATTATTCGTGTAGATACGGAGTCACCTAGTGCAG	3210 fluorescence intensity (a.u.)
ATGCTTGTGACAATAGATGTACAAACGTCACATACTAAATCGGAGTCACCTAGTGCAG	3190 fluorescence intensity (a.u.)
CGCTGTCCCCGCCCACGCGGCGACGCCACGTGTCCCCACCCGGAGTCACCTAGTGCAG	26700 fluorescence intensity (a.u.)
TAGTAAATGATATCAATTTAGGTGGTGTTCTTTTCTTCTGCGGAGTCACCTAGTGCAG	3190 fluorescence intensity (a.u.)
CTAGTTCTTGCTCTTTTCTCGACGTCATCCGATGGCCATGCGGAGTCACCTAGTGCAG	6070 fluorescence intensity (a.u.)
GGTGTCGCGTCGCGTCTGCAGTAGAAATGGAAGCCTGGGGCGGAGTCACCTAGTGCAG	3230 fluorescence intensity (a.u.)
ATACCCGGTCCCACCTCTCATACACACGTAACGTCTTGGACGGAGTCACCTAGTGCAG	5150 fluorescence intensity (a.u.)
CGGAGACCACCAACCGATGATGTCGTCTCCTTTGCCAACACGGAGTCACCTAGTGCAG	3220 fluorescence intensity (a.u.)
CCAACCTCAAAACCCTAACCCGGTGGACCACCGCTATTACCGGAGTCACCTAGTGCAG	4080 fluorescence intensity (a.u.)
ATAATAATAATAAACCAGCTGCCTTTGTGACAACAGCCCACGGAGTCACCTAGTGCAG	18800 fluorescence intensity (a.u.)

Sequence	binding signal
GCGCAGTTCGTGAAGAGCGTGGCGTGCGGTGCGCGCGTCACGGAGTCACCTAGTGCAG	4810 fluorescence intensity (a.u.)
AGGTTCAACTGTTTAAGTTACGGAACACGTCATCTTTGTCCGGAGTCACCTAGTGCAG	20700 fluorescence intensity (a.u.)
TGAAAATGAAAATATCAAAGTGACGTCAGCGCAATCGCGCCGGAGTCACCTAGTGCAG	10400 fluorescence intensity (a.u.)
CGTCGCCGTCAGCCGCCCGCCGCACTCGTTTCCAGCGATCCGGAGTCACCTAGTGCAG	3460 fluorescence intensity (a.u.)
ACTGCTCCATTAGCCAGCAGCCGGTGGCGCACAAACGCCACGGAGTCACCTAGTGCAG	3300 fluorescence intensity (a.u.)
ATTAAGAAGCATCATATCCATATCACTATATCGCCACTGACGGAGTCACCTAGTGCAG	4220 fluorescence intensity (a.u.)
AGCTTCAGGAGTTCTTGTCACGTCTCGAGGAAGAGAGGCTCGGAGTCACCTAGTGCAG	3740 fluorescence intensity (a.u.)
GAGCGAGTCGACCTGAGGCTTCGTCAGGCAGTGTGTTGCTCGGAGTCACCTAGTGCAG	3160 fluorescence intensity (a.u.)
AGTGTGTAAGACTGACGTGATAACCACTACACCACAGCAACGGAGTCACCTAGTGCAG	3440 fluorescence intensity (a.u.)
GCACTTGCATATTTGCTGTGTGGCTTGTTGAGTATGTCATCGGAGTCACCTAGTGCAG	3760 fluorescence intensity (a.u.)
TCCAGTTTCGCGTAGCTGCGTGACAGTTCAATTGAACTCTCGGAGTCACCTAGTGCAG	3200 fluorescence intensity (a.u.)
AAGTGGACCGACGCCGACGTCGACGAGTTCATCGCCTCCGCGGAGTCACCTAGTGCAG	3720 fluorescence intensity (a.u.)
TATGATGTTTGTAAGACGTGGATCTGAATGTCAACATTGTCGGAGTCACCTAGTGCAG	3220 fluorescence intensity (a.u.)
ATGTGCACGTCAACCAGTAAGACACACTCTTTAGAATTGGCGGAGTCACCTAGTGCAG	4200 fluorescence intensity (a.u.)
AGCAAACATAATTAACATATATATAATAAAGCTCAAAGAGCGGAGTCACCTAGTGCAG	3780 fluorescence intensity (a.u.)
CCGCGGTGACACAGCATTTAGCGTCAGTTGACGTGGTGCGCGGAGTCACCTAGTGCAG	8650 fluorescence intensity (a.u.)
GTTAAACACGTACTAAGTGTCAAACATTTTGAAATGGAGGCGGAGTCACCTAGTGCAG	21300 fluorescence intensity (a.u.)
CGTCCATTGCCTGCAGAAACGGACGGCGCGGGTGGGTGGGCGGAGTCACCTAGTGCAG	3680 fluorescence intensity (a.u.)
CCACCGTCGACGCCACCTCCGCCGGCCCCGCCACGCGGCGCGGAGTCACCTAGTGCAG	6760 fluorescence intensity (a.u.)
ACTCTGAACCATGTGATGATGTAACGTGGCGACGATCGAGCGGAGTCACCTAGTGCAG	3210 fluorescence intensity (a.u.)
TCCGCACTCACAAGCTGTACGATCCGTTCCGTTCGTCCTTCGGAGTCACCTAGTGCAG	3450 fluorescence intensity (a.u.)

Sequence	binding signal
GTGTGTGCGTTTGTGTGTGTATATAGTAGTTAGGCCAATTCGGAGTCACCTAGTGCAG	3980 fluorescence intensity (a.u.)
TCTTCCTGATCTCACCACTTTGTGACTCGTCACCGTCTCGCGGAGTCACCTAGTGCAG	5150 fluorescence intensity (a.u.)
GAGGAAATTATTATACTTATCATCTCATATAATTTAGACCCGGAGTCACCTAGTGCAG	22100 fluorescence intensity (a.u.)
CACTCGCTCATCATGTTTGCGTCGGAGCCGACGTGGCGACCGGAGTCACCTAGTGCAG	17200 fluorescence intensity (a.u.)
GTACTCGTACTCCTAAATTTGTGTTGGTTTGTTGGACTATCGGAGTCACCTAGTGCAG	27900 fluorescence intensity (a.u.)
GCTATCTTTTCTCTTGGTCATCATGCTTCCTCCATGGATTCGGAGTCACCTAGTGCAG	3450 fluorescence intensity (a.u.)
TAATTTGACACTACCAATGATTTGGTAGGGCACCAAACCACGGAGTCACCTAGTGCAG	3410 fluorescence intensity (a.u.)
GTGAGACTGGCGAGGCCCTTCTTGCGTGGCGCTGCAAGCTCGGAGTCACCTAGTGCAG	7600 fluorescence intensity (a.u.)
TGGTTCTATTTGCTTGTCAACCTTTATGATCTTGCGTTATCGGAGTCACCTAGTGCAG	3380 fluorescence intensity (a.u.)
TAGCGCATCATCATCATCGGTGTGTCGTGACTTGCGTTCGCGGAGTCACCTAGTGCAG	5120 fluorescence intensity (a.u.)
GCTACTTTGCGCTCGCGTCGGCGTCGGCTTCTGTCTCCGACGGAGTCACCTAGTGCAG	4070 fluorescence intensity (a.u.)
AGCGGAAGTCATTGACGATGTCGGTGGTCATGCTATGTCCCGGAGTCACCTAGTGCAG	17600 fluorescence intensity (a.u.)
TATCAAATTTATCCATTTGTTAATGTTGTAATAATTAAAACGGAGTCACCTAGTGCAG	35100 fluorescence intensity (a.u.)
GTTTATTCCAAGTGGTGGATGCTGATGAATTAAGTATATACGGAGTCACCTAGTGCAG	3140 fluorescence intensity (a.u.)
ACCAGCGCCCGCGCGCGCGCGCGAGTACGTGTTGTCGAGACGGAGTCACCTAGTGCAG	3200 fluorescence intensity (a.u.)
CAGCTGCGGGCAACGGTGCCTTGGCGTCACGCATCCGCCGCGGAGTCACCTAGTGCAG	3610 fluorescence intensity (a.u.)
GGGGAAATTTTCACGAGGGAGAGGGAGGGGAGGGATATTTCGGAGTCACCTAGTGCAG	4860 fluorescence intensity (a.u.)
GCGCCAAGCCGGCCTCCATCTCCGCCGCCCGCGCCTCTCGCGGAGTCACCTAGTGCAG	3370 fluorescence intensity (a.u.)
TCACCCCTGAGAAAGACACGTCTTTCTGGTTTAATCCATTCGGAGTCACCTAGTGCAG	3620 fluorescence intensity (a.u.)
ACGGCAAAGCCCATTAGTCGGACTGGCCTCCAGGGGAGGGCGGAGTCACCTAGTGCAG	3670 fluorescence intensity (a.u.)
GAGGGAGTACTGCACTATGACTAATATGTTGATCGGTTCTCGGAGTCACCTAGTGCAG	3270 fluorescence intensity (a.u.)
